In patent US10813920B2, “Drug for treating corneal endothelium by promoting cell proliferation or inhibiting cell damage” (THE DOSHISHA, priority 2013, dated 2020):
At least one compound was matched to its structure with a doubt left.

Key:
Assay type in all cases: cell-based
[1] = system: cynomolgus monkey corneal endothelial cells; assay: BrdU ELISA, concentration series, cynomolgus monkey corneal endothelial cells (Example 8); details: concentration series per agent between 0.1 μM and 100 μM; 5000 cells/well; * p<0.01
Description: The medium was removed from a culture dish culturing cynomolgus monkey corneal endothelial cells ([…] phosphate buffer solution (Nacalai Tesque, 14249-95) heated to 37° C. in advance was added thereto and the cells were washed. This operation was repeated twice. After removing the phosphate buffer solution, 0.05% Trypsin-EDTA (Nacalai Tesque, 35554-64) was added and the cells were incubated for 10 minutes at 37° C. (5% CO2). The cells were then suspended in DMEM (Nacalai Tesque, 08456-94)+10% FBS (Biowest, S1820-500)+1% penicillin/streptomycin (P/S, Nacalai Tesque, 26252-94) and centrifuged for 3 minutes at 1200 rpm to collect the cells. A 96-well plate was treated with an FNC coating mix (50 ml ([…], catalog number: 0407). The monkey corneal endothelial cells (lot: 20120404-3L-P8) were seeded in the coated 96-well plate at a ratio of 5000 cells/well. The cells were cultured for 30 hours at 37° C. (5% CO2). After 30 hours, the medium was removed and changed to a serum free medium: DMEM+1% P/S to culture the cells for 18 hours. […] DMSO was added to the control. After 24 hours, a BrdU labeling reagent (Amersham Cell Proliferation Biotrak ELISA System, Version 2, GE Healthcare, catalog number: RPN250) was further added at a ratio of 1:1000 to the DMEM+10% FBS+1% P/S medium. […] The absorbance at 450 nm was measured. *P<0.01, Dunnet's test, n=5. […] The absorbance at 450 nm was measured. […]

[2] = system: cynomolgus monkey corneal endothelial cells; assay: BrdU ELISA, one concentration per agent, monkey corneal endothelial cells (Example 9); details: 10 μM SB203580, 1 μM Semapimod, 3 μM BIRB796, 1 μM PH-797804, 3 μM VX-702, 3 μM LY2228820, 3 μM TAK-715, * p<0.01
Description: The medium was removed from a culture dish culturing cynomolgus monkey corneal endothelial cells. PBS (-) heated to 37° C. in advance was added thereto and the cells were washed. This operation was repeated twice. After removing the PBS (-), 0.05% Trypsin-EDTA (NacalaiTesque, 35554-64) was added and the cells were incubated for 10 minutes at 37° C. (5% CO2). The cells were then suspended in DMEM (Nacalai Tesque, 08456-94)+10% FBS (Biowest, S1820-500)+1% penicillin/streptomycin (Nacalai Tesque, catalog number: 26252-94) and centrifuged for 3 minutes at 1200 rpm to collect the cells. A 96-well plate was treated with an FNC coating mix (50 ml ([…], catalog number: 0407). The monkey corneal endothelial cells (lot: 20120404-3L-P9) were seeded in the coated 96-well plate at a ratio of 3000 cells/well. The cells were cultured for 30 hours at 37° C. (5% CO2). After 30 hours, the medium was removed and changed to a serum free medium: DMEM+1% P/S to culture the cells for 18 hours. […] SMC20120918), BIRB796 (Doramapimod) (Selleck Chemicals, catalog number: S1574, lot number: S157402), PH-797804 (Selleck Chemicals, catalog number: S2726, lot number: 01), VX-702 (Selleck Chemicals, catalog number: S6005, lot number: 02), LY2228820 (Selleck Chemicals, catalog number: S1494, lot number: 01), and TAK-715 (Selleck Chemical, catalog number: […] […] The absorbance at 450 nm was measured.

[3] = system: human corneal endothelial cells; assay: BrdU ELISA, one concentration per agent, human corneal endothelial cells (Example 9); details: 10 μM SB203580, 1 μM Semapimod, 3 μM BIRB796, 1 μM PH-797804, 3 μM VX-702, 3 μM LY2228820, 3 μM TAK-715, * p<0.01
Description: The medium was removed from a culture dish culturing human corneal endothelial cells. PBS (-) heated to 37° C. in advance was added thereto and the cells were washed. This operation was repeated twice. After removing the PBS (-) TrypLE Select (×10) (GIBCO, A12177-01) was added and the cells were incubated for 10 minutes at 37° C. (5% CO2). The cells were then suspended in Opti-MEM (GIBCO, 31985-070) and centrifuged for 3 minutes at 1200 rpm to collect the cells. A 96-well plate was treated with an FNC coating mix (50 ml ([…], catalog number: 0407). The human corneal endothelial cells (lot: C1642-P8) were seeded in a Condition Medium for humans in the coated 96-well plate at a ratio of 3000 cells/well. The cells were cultured for 30 hours at 37° C. (5% CO2). After 30 hours, the medium was removed and changed to a serum free medium: Opti-MEM+1% P/S to culture the cells for 18 hours. […] SMC20120918), BIRB796 (Doramapimod) (Selleck Chemicals, catalog number: S1574, lot number: S157402), PH-797804 (Selleck Chemicals, catalog number: S2726, lot number: 01), VX-702 (Selleck Chemicals, catalog number: S6005, lot number: 02), LY2228820 (Selleck Chemicals, catalog number: S1494, lot number: 01), and TAK-715 (Selleck Chemical, catalog number: […] DMSO was added to the control. […] The absorbance at 450 nm was measured.

[4] = system: cultured monkey corneal endothelial cells; assay: UV-induced cell death of cultured monkey corneal endothelial cells (phase difference microscope); details: UV 100 J/m^2; 9 hours after irradiation; 10 μM SB203580, 3 μM BIRB796, 1 μM PH-797804, 3 μM VX-702, 3 μM LY2228820, 3 μM TAK-715
Description: (§1) 1×10^5 cultured monkey corneal endothelial cells were seeded on a 12-well plate coated with an FNC Coating Mix and cultured for about 5 days until reaching confluence under the condition of 5% CO2 at 37° C.
Medium: Dulbecco's Modified Eagle Medium (DMEM, Gibco, 12320-032), 10% FBS, 1% Penicillin-Streptomycin (nacalai tesque, 26252-94)
(§2) Each inhibitor was then added at the concentration in the above-described Table and the cells were incubated for 16 hours under the condition of 5% CO2 at 37° C. The solvent of each reagent, Dimethyl Sulfoxide, Sterile-filtered (nacalai tesque, 13408-64) MSO, was added to the Control group and the UV group. Gibco DMEM, 1% P/S (penicillin/streptomycin) was used as the medium.
(§3) The cellular supernatant was then removed and the cells were irradiated with UV (100 J/m^2). After irradiation, cells were again added to a medium containing each inhibitor and cultured for 9 hours. The cell form and apoptosis were observed under a phase difference microscope.

[5] = system: cultured monkey corneal endothelial cells; assay: UV-induced apoptosis of cultured monkey corneal endothelial cells, Annexin V and DAPI staining; details: UV 100 J/m^2, after 9 hours of culture
Description: as §1, §2, §3
The cells, after 9 hours of culture, were stained for 20 minutes at 37° C. by using MEBCYTO-Apoptosis Kit (Annexin V-FITC Kit) (manufacturer: MBL, Code: 4700). The cells were then immobilized for 10 minutes with 95% acetic acid ethanol. After immobilization, the cells were stained for 30 minutes with DAPI Solution (manufacturer: DOJINDO, Code: GA098) and observed under a confocal microscope.

corneal endothelium = assay: UV-induced apoptosis of corneal endothelium in rabbit sclerocornea segments, Annexin V and DAPI staining; details: rabbit corneal tissue; UV 100 J/m^2; stored 24 hours at 4° C.; 10 μM SB203580, 3 μM BIRB796, 1 μM PH-797804, 3 μM VX-702, 3 μM LY2228820, 3 μM TAK-715
Description: The experiment used a rabbit eye ball 0-24 hours after euthanasia. Sclerocornea was removed along the corneal limbus under a stereo microscope by using spring scissors. The crystalline lens and iris were removed to make a sclerocornea segment. […] After dividing a cornea, pretreatment was applied to the Control group for 2 hours in the dark with Optisol-GS® (Bausch & Lomb) (Lot. […] After washing the cornea twice with PBS(−), 100 J/m^2 of UV was irradiated onto the corneal endothelial cells, which were against stored for 24 hours at 4° C. […] The sclerocornea segments were washed with PBS(−), and MEBCYTO-Apoptosis kit (Annexin V-FITC kit) (MBL) (Lot. 027FA) was used for Annexin V and DAPI staining. The segments were immersed and immobilized for 30 minutes in −30° C. ice-cooled 95% ethanol. In order to remove ethanol components, PBS(−) was exchanged every 5 minutes and the segments were washed three times. An antifading agent was then added and enclosed. Annexin V and nuclei was observed by fluorescence imaging under a confocal microscope. The percentage of Annexin V positive cells were calculated in the above-described rabbit corneal tissue. *p<0.05 (Dunnett's test).

Which “BrdU uptake as a percentage with respect to the control (proliferation)” value (“BrdU uptake as a percentage” below) [1] does the source give for NC(=O)c1ccc(N(C(N)=O)c2c(F)cccc2F)nc1-c1ccc(F)cc1F [VX-702, 1-(carbamoyl-6-(2,4-difluorophenyl)pyridine-2-yl)-1-(2,6-difluorophenyl)urea] here?
Its value is “promotes proliferation”.

And the “BrdU uptake as a percentage” value [2]?
Its value is “promotes proliferation”.

And the “BrdU uptake as a percentage” value [3]?
Its value is “promotes proliferation”.

What about the “Cellular disorders (cell death) induced by UV” value [4] of the same compound?
The value was “suppressed”.

What about the “Apoptosis induced by UV (annexin V staining)” value [5] of the same compound?
Its value is “suppressed”.

And the “Apoptosis induced by UV (annexin V staining)” value (corneal endothelium)?
Its value is “suppressed”.
